The values that follow come from article PMC3541991.

T1: Sss1p tagged with the HA-epitope (S. cerevisiae (expressed in yeast strain KRY739)) (UniProt P35179)
T1 sequence: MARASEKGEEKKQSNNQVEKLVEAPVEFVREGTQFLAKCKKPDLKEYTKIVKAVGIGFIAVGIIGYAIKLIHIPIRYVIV

B1: Sec72p (protein, UniProt P39742 1-193)
chain: MVTLEYNANSKLITASDAVVALSTETNIDQINVLTTSLIGETNPNFTPQPNEALSKMIKGLFESGMKNLQQKKLNEALKNVSLAIEMAQRKRAPWEAFAIQLPELHFMLRSKIDLCLILGKHLEALQDLDFLLGTGLIQPDVFVRKADCLLKLRQWEEARATCERGLALAPEDMKLRALLIETARNLAEYNGE
B2: Sec61p (protein, UniProt P32915 1-480)
chain: MSSNRVLDLFKPFESFLPEVIAPERKVPYNQKLIWTGVSLLIFLILGQIPLYGIVSSETSDPLYWLRAMLASNRGTLLELGVSPIITSSMIFQFLQGTQLLQIRPESKQDRELFQIAQKVCAIILILGQALVVVMTGNYGAPSDLGLPICLLLIFQLMFASLIVMLLDELLSKGYGLGSGISLFTATNIAEQIFWRAFAPTTVNSGRGKEFEGAVIAFFHLLAVRKDKKRALVEAFYRTNLPNMFQVLMTVAIFLFVLYLQGFRYELPIRSTKVRGQIGIYPIKLFYTSNTPIMLQSALTSNIFLISQILFQKYPTNPLIRLIGVWGIRPGTQGPQMALSGLAYYIQPLMSLSEALLDPIKTIVYITFVLGSCAVFSKTWIEISGTSPRDIAKQFKDQGMVINGKRETSIYRELKKIIPTAAAFGGATIGALSVGSDLLGTLGSGASILMATTTIYGYYEAAAKEGGFTKNLVPGFSDLM
B3: Sec71p (protein, UniProt P33754 1-206)
chain: MSEFNETKFSNNGTFFETEEPIVETKSISVYTPLIYVFILVVSLVMFASSYRKKQAKKISEQPSIFDENDAHDLYFQIKEMSENEKIHEKVLKAALLNRGAESVRRSLKLKELAPQINLLYKNGSIGEDYWKRFETEVKLIELEFKDTLQEAERLQPGWVQLFVMVCKEICFNQALSRRYQSILKRKEVCIKEWELKINNDGRLVN
B4: Sec63p (protein, UniProt P14906 1-663)
chain: MPTNYEYDEASETWPSFILTGLLMVVGPMTLLQIYQIFFGANAEDGNSGKSKEFNEEVFKNLNEEYTSDEIKQFRRKFDKNSNKKSKIWSRRNIIIIVGWILVAILLQRINSNDAIKDAATKLFDPYEILGISTSASDRDIKSAYRKLSVKFHPDKLAKGLTPDEKSVMEETYVQITKAYESLTDELVRQNYLKYGHPDGPQSTSHGIALPRFLVDGSASPLLVVCYVALLGLILPYFVSRWWARTQSYTKKGIHNVTASNFVSNLVNYKPSEIVTTDLILHWLSFAHEFKQFFPDLQPTDFEKLLQDHINRRDSGKLNNAKFRIVAKCHSLLHGLLDIACGFRNLDIALGAINTFKCIVQAVPLTPNCQILQLPNVDKEHFITKTGDIHTLGKLFTLEDAKIGEVLGIKDQAKLNETLRVASHIPNLKIIKADFLVPGENQVTPSSTPYISLKVLVRSAKQPLIPTSLIPEENLTEPQDFESQRDPFAMMSKQPLVPYSFAPFFPTKRRGSWCCLVSSQKDGKILQTPIIIEKLSYKNLNDDKDFFDKRIKMDLTKHEKFDINDWEIGTIKIPLGQPAPETVGDFFFRVIVKSTDYFTTDLDITMNMKVRDSPAVEQVEVYSEEDDEYSTDDDETESDDESDASDYTDIDTDTEAEDDESPE

No constants are given. Whether binding was seen depends on the method and setting. Binding seen in cells or lysates may run through a third protein. A yes stands for co-enrichment or nearness to the bait. Other partners may have been found. Where a sequence is shown, tags or fusion partners need not be part of it.

This experiment concerns the target T1, Sss1p tagged with the HA-epitope (S. cerevisiae (expressed in yeast strain KRY739)). The experiment can be described thus: affinity purification with mass spectrometry; microsomes (7,500 eq) of the SSS1-HA strain lysed in 2.5% digitonin buffer (50 mM HEPES-KOH pH 7.4, 400 mM potassium acetate, 8 mM magnesium acetate), ultracentrifuged to remove debris and ribosomes, diluted to 1% digitonin, bound to monoclonal anti-HA agarose overnight at 4°C, eluted with glycine-HCl pH 2.5; bands from SDS-PAGE identified by mass spectrometry; done with and without phosphatase inhibitors.
On to B1, for which the binding result is reported as “binds”. The entry for B2 is “binds”; for B3 it is “binds”; for B4 it is “binds”.
